Data published in paper doi:10.1101/857904.
No constants are given. Whether binding was seen depends on the method and setting. Binding seen in cells or lysates may run through a third protein.

The chains behind the UniProt entries cited, without tags or fusion partners. Residues count along the entry.
UniProt P30530, residues 26-894: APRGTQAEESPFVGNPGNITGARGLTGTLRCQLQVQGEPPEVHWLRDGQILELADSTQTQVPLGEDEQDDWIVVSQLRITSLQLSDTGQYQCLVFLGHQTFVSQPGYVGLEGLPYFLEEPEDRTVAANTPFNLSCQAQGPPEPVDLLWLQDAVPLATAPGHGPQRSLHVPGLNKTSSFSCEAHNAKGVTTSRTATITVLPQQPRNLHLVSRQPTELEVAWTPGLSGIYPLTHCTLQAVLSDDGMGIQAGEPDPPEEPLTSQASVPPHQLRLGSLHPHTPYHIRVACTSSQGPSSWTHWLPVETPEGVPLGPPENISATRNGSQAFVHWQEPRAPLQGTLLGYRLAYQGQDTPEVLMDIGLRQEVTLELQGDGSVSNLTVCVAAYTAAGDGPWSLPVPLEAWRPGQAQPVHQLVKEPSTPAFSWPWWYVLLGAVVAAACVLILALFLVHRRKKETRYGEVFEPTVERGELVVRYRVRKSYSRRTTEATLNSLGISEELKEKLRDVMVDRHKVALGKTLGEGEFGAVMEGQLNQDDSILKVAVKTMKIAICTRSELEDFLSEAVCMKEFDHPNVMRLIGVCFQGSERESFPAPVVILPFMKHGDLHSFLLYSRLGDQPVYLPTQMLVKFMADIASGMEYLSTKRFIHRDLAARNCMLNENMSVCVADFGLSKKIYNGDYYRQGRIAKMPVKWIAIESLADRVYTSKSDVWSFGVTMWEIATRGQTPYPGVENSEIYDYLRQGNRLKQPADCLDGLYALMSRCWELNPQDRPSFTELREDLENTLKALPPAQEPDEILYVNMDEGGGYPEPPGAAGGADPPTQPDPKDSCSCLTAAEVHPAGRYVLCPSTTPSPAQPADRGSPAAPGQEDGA

Target: AXL (human (endogenous in 238 R melanoma cells)) (UniProt P30530)
Assay: co-IP

B1: DDR2-mCherry (receptor, UniProt Q16832 22-855)
chain: KAQVNPAICRYPLGMSGGQIPDEDITASSQWSESTAAKYGRLDSEEGDGAWCPEIPVEPDDLKEFLQIDLHTLHFITLVGTQGRHAGGHGIEFAPMYKINYSRDGTRWISWRNRHGKQVLDGNSNPYDIFLKDLEPPIVARFVRFIPVTDHSMNVCMRVELYGCVWLDGLVSYNAPAGQQFVLPGGSIIYLNDSVYDGAVGYSMTEGLGQLTDGVSGLDDFTQTHEYHVWPGYDYVGWRNESATNGYIEIMFEFDRIRNFTTMKVHCNNMFAKGVKIFKEVQCYFRSEASEWEPNAISFPLVLDDVNPSARFVTVPLHHRMASAIKCQYHFADTWMMFSEITFQSDAAMYNNSEALPTSPMAPTTYDPMLKVDDSNTRILIGCLVAIIFILLAIIVIILWRQFWQKMLEKASRRMLDDEMTVSLSLPSDSSMFNNNRSSSPSEQGSNSTYDRIFPLRPDYQEPSRLIRKLPEFAPGEEESGCSGVVKPVQPSGPEGVPHYAEADIVNLQGVTGGNTYSVPAVTMDLLSGKDVAVEEFPRKLLTFKEKLGEGQFGEVHLCEVEGMEKFKDKDFALDVSANQPVLVAVKMLRADANKNARNDFLKEIKIMSRLKDPNIIHLLAVCITDDPLCMITEYMENGDLNQFLSRHEPPNSSSSDVRTVSYTNLKFMATQIASGMKYLSSLNFVHRDLATRNCLVGKNYTIKIADFGMSRNLYSGDYYRIQGRAVLPIRWMSWESILLGKFTTASDVWAFGVTLWETFTFCQEQPYSQLSDEQVIENTGEFFRDQGRQTYLPQPAICPDSVYKLMLSCWRRDTKNRPSFQEIHLLLLQQGDE
binding: no binding
